The exact form of at least one protein or probe is not confirmed. A negative result means that nothing was seen under these conditions.
Test system: GP46F13 (Lactococcus lactis phage vB_Llc_bIBBF13 (F13))
Assay: EMSA
Conditions: no ATP, 20 mM Tris-HCl pH 8, 50 mM NaCl, 1 mM DTT, 1 mM EDTA, 0.1 mg/ml BSA, 2.5% glycerol, 30 min at 30 C, 1 nM DNA, 7% native PAGE, 0.5x TBE, 4 C, recombinant protein, protein details: N-terminal 6xHis-SUMO, removed by SUMO protease
[1] = complexes in wells, 0.1-0.75 uM protein, label: 5' Cy5, single-stranded DNA

| Sequence | binding result [1] | also measured |
| --- | --- | --- |
| TCACACAGGGCTACCGCTTTGCCTAACTCATTACTCGCGCCTTATTCAGTACGGTTTTCATATACTCAATTCCTAAGACATCAGACAAGCCTTAGGCGTATTCAATTTTT (double strand) [ds110 (110ds)] | – | binding result (up to 0.75 uM protein, 0.1-0.75 uM …, label: 5' Cy5 on reverse strand, letters put together from the description): no binding |
| TCACACAGGGCTACCGCTTTGCCTAACTCATTACTCGCGCCTTATTCAGTACGGTTTTCATATACTCAATTCCTAAGACATCAGACAAGCCTTAGGCGTATTCAATTTTT [ss110] | – | binding result (clear retarded complexes, 0.1-0.75 uM protein, label: 5' Cy5, single-stranded DNA): binds |
| TATTCAGTACGGTTTTCATATACTCAATTCCTAAGACATCAGACAAGCCTTAGGCGTATTCAATTTTT [ss68] | binds | – |
| CTCAATTCCTAAGACATCAGACAAGCCTTAGGCGTATTCAATTTT / TTTTTTTTTTTTTTTTTTTTTTTTTTTTTTTTTTTTAAGGCTTGTCTGATGTCTTAGGAATTGAG [30duplex_5'ext] | – | binding result (clear complexes, 0.1-0.75 uM protein, label: 5' Cy5 on strand 1): binds |
| CTCAATTCCTAAGACATCAGACAAGCCTTAGGCGTATTCAATTTT [ss45] | binds | – |
| AAAAATTGAATACGCCTAAGGC [ss22] | binds | – |

Reference: publication PMC8965321
